Measurements as given in article PMC10163288.
The other results are listed elsewhere or left out.

B1: il10ra_site1_normal_mot_HHH_b2_08186_000000021_0001_43_56_H_._HHH_b1_07769_0001_0000300019_0000001_0 (protein)
chain: SSSSSNEEEIRELLEEVERLLEEGDPEEALQLLLRAVRLALELGNAELLQLIWRLLKEVASSSSS
B2: il10ra_site1_normal_mot_HHH_b2_00273_000000062_0001_23_39_H_._HHH_b1_04796_af2_0001_0000100002_0000001_1 (protein)
chain: SSSSSEEELKELLEEVEELIEKNDPERALRAIQEALRFAFRLSDEEALRRLWELAKLVAEASSSS
B3: il10ra_site1_normal_mot_HHH_b1_00999_000000080_0001_41_55_H_._HHH_b1_02031_af2_0001_0000400012_0000002_0 (protein)
chain: SSSSSDEEEKEVEELLEEAKRIPDPRERNEILLEALRIALHLGNEELLQLVWRVVKELGSSSSSS
B4: il10ra_site1_normal_mot_ems_3hM_3590_af2_000000053_0001_1_20_H_._851e9514b01d94382d7da6108aa17113_0001_0001_0000300010_0000001_0 (protein)
chain: SQERALENAVKALLQGNPLAERSLTWAVARELNIPPEEAQELIEEVRELAKTDPEKAEELLKEIL
B5: il10ra_site1_sap_17_mot_HHH_b1_06914_000000280_0001_1_18_H_._HHH_b2_02639_0001_0000100004_0000002_0_0001 (protein)
chain: SNEEELIFQIVIKAYRELLKAGVSHEEIAKANAELFEARRRGVSAEEVEEIAEEIVREAKEESSS
B6: il10ra_site1_sap_20_mot_9bc32e39fd96e64286323717145257bc_0001_000000045_0001_37_51_H_._HHH_b1_01025_af2_0001_0000400005_0000001_0_0001 (protein)
chain: SSSSDEEEEELRELLERVRELLERGDPRRAAEVTQELLRLIFQLRDHEALEELDRLFQKEASSSS
B7: il10ra_site1_sap_27_mot_HHH_b2_07873_af2_000000172_0001_1_19_H_._HHH_b2_04598_0001_0000100010_0000001_0_0001 (protein)
chain: SSSSSDEEEERVEELIEELRKIEDPERAARLVIEALRLIFRLSDAELLEELWRAFKEVINSSSSS
B8: il10ra_site1_sap_12_mot_8756ee2cf497b5429c717dfc0c0bcfd6_0001_000000186_0001_1_13_H_._HHH_b2_07923_0001_0000200016_0000002_0_0001_af2pred_0001 (protein)
chain: SSSSDVEEELEELLEEAKRIEDLHRASYVLSEAFALANRRRDPELEEEVRRAAKEIIEAGSSSSS
B9: il10ra_site1_sap_23_mot_HHH_b1_00982_af2_000000222_0001_1_20_H_._14d82ceff8a195a39001b8830cdb77ae_0001_1_0001_0000300007_0000001_0_0001 (protein)
chain: SSSSSDAAEEVYELSREAMELARKGNPEEAEKVLEEAEKLAEEANNRILQVVVRFALRALSSSSS
B10: il10ra_site1_sap_16_mot_HHH_b1_05357_000000034_0001_23_39_H_._HHH_eva_0376_0001_0000100015_0000001_0_0001 (protein)
chain: SLEEELEELLRELGVPPEWIRLLQLAFRVQRRQGTPPEQVLEALLYFLEAAGDPAREAVRELLER
B11: il10ra_site1_normal_mot_HHH_b1_06914_000000280_0001_1_18_H_._HHH_b1_02183_0001_0000200013_0000001_0 (protein)
chain: SSSSSDEAEEIYELLREALELMANGNPEEAEEVLEEARKLAEELNSFALLFAVRLLLRQLSSSSS
B12: il10ra_site1_sap_18_mot_HHH_b2_02949_000000044_0001_44_58_H_._f40d6d0cbf34e70120e1cbb54c31f594_0001_0001_0000300008_0000002_0_0001_af2pred_0001 (protein)
chain: SSSSSTIEEDVKSALRAAELLLKRGDPEKAEEAARIAELLARQANNEELLKKIEELLEELSSSSS
B13: il10ra_site1_sap_15_mot_HHH_b2_00943_af2_000000149_0001_1_17_H_._HHH_b2_00970_0001_0000100006_0000002_0_0001 (protein)
chain: SSSSSSDRTREIYELIREAFEIEDPEEAREVLERALELAEELGDFALRHAVEIALRALSSSSSSS
B14: il10ra_site1_normal_mot_39ab2cb694c8b9c1dc7e65c0d672c93e_0001_000000036_0001_53_65_H_._HHH_b1_05574_0001_0000300023_0000001_0 (protein)
chain: SSSSSEEERIEELIEEAKELLERGNPEEALELVLEALRLAYQNRNAELLQELWRLAKEIASSSSS
B15: il10ra_site1_sap_20_mot_HHH_b1_08133_000000195_0001_1_19_H_._HHH_b2_01759_af2_0001_0000200016_0000001_1_0001 (protein)
chain: SSSSSEEEELTRLLHEIMELYKKGDPRAEELVREAQELAEELGNQMAKWILELMLRALKRQSSSS
B16: il10ra_site1_normal_mot_HHH_b2_08186_000000021_0001_43_56_H_._HHH_b2_01697_0001_0000100002_0000002_0 (protein)
chain: SSSSSSEEEEVRREVEELLEEAKRVDREEAARLLMEAIRLAFEVSDPELLKLIWEVLRELSSSSS
B17: il10ra_site1_normal_mot_HHH_b1_01975_000000257_0001_1_17_H_._HHH_b1_01232_af2_0001_0000200004_0000001_1 (protein)
chain: SSSSDEHERIVRLMLRVARLFIEGNPEEAEKLLEEAEELAKELNDPELQRAIELLKRALKSSSSS
B18: il10ra_site1_normal_mot_7f9b3cf633cfd27bca007b62ade1be3b_0001_1_000000138_0001_17_32_H_._HHH_b2_03084_0001_0000200009_0000001_0 (protein)
chain: SSSSDLEEQIRAAEEFIRALLESGDPEAARRLLRALEDVVKNFNDEEAQRVVEELEEEINSSSSS
B19: il10ra_site1_sap_7_mot_HHH_b2_01447_af2_000000258_0001_1_20_H_._HHH_b1_00310_0001_0000100012_0000001_0_0001 (protein)
chain: SSSSSSDEEELLEAALRLLKQAPDPEIRKFMAWSIEFLAREVGDEEVEEELERLEEELSSSSSSS

Molecular target: il10ra, Q13651
Test: yeast display titration

Row | Binder | apparent Kd
1 | B1 | inactive: no binding seen
2 | B2 | inactive: no binding seen
3 | B3 | inactive: no binding seen
4 | B4 | inactive: no binding seen
5 | B5 | inactive: no binding seen
6 | B6 | inactive: no binding seen
7 | B7 | inactive: no binding seen
8 | B8 | inactive: no binding seen
9 | B9 | inactive: no binding seen
10 | B10 | inactive: no binding seen
11 | B11 | inactive: no binding seen
12 | B12 | inactive: no binding seen
13 | B13 | inactive: no binding seen
14 | B14 | inactive: no binding seen
15 | B15 | inactive: no binding seen
16 | B16 | inactive: no binding seen
17 | B17 | inactive: no binding seen
18 | B18 | inactive: no binding seen
19 | B19 | inactive: no binding seen

Reformatted: results already given
Row,Binder,apparent Kd
7,B7,inactive: no binding seen
8,B8,inactive: no binding seen
